The list shows a part of the results. These are further read-outs of the screen, such as a control signal, another cell line or another target. No call is given for them. The list favours compounds with an active or inconclusive main result. Words in brackets tell the shape of the fitted curve; partial curves, single points and poor fits give uncertain potencies.
Experiment: qHTS Assay for Lipid Storage Modulators in Drosophila S3 Cells;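 for cell number change: cells counted by Cell Tracker Red CMTPX staining in the red channel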
Details: BODIPY lipid droplet fluorescence, 18-24 h; for cell number change: measured here: cell count max response, cells fed with added oleic acid
Method in brief: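 Drosophila S3 cells got compounds at several concentrations plus oleic acid (400 uM solution). Laser-scanning cytometry with 488 nm excitation read lipid droplets at 500-530 nm and cells at 575-640 nm. Percent activity was relative to 20 uM Triacsin C.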

[1] = measured here: lipid fluorescence (Fed channel) AC50, cells fed with added oleic acid
[2] = measured here: cell number channel AC50, cells fed with added oleic acid

SMILES	cell number change [%]	AC50 [1]	AC50 [2]
COc1ccccc1NS(=O)(=O)c1ccc2c(c1)NC(=O)C(C)S2 (configuration not stated)	-56.1	29.1 µM [falling, partial curve, poor fit]	–
CCOC(=O)c1c(C)[nH]c(C(=O)COC(=O)/C=C/c2ccc(OCC#N)c(OC)c2)c1C	54.7	–	23.1 µM [rising, partial curve]
COC(=O)c1cc(OC)c(OC)cc1NC(=O)c1cc(C(C)(C)C)oc1C	-21.7	5.17 µM [rising, partial curve, poor fit]	–
O=C(NNc1ccccc1[N+](=O)[O-])NC1CCCCC1	-46.4	–	0.206 µM [falling, full curve, poor fit]
O=S(=O)(NC1c2cccc3cccc(c23)C1N1CCNCC1)c1ccc(Cl)cc1 (configuration not stated)	-17.3	32.6 µM [falling, single point]	–
CCOC(=O)N1CCN(S(=O)(=O)c2c(C)[nH]c(=O)[nH]c2=O)CC1	-207	25.9 µM [falling, partial curve]	29.1 µM [falling, partial curve]
O=C1CCCN2N=C(SCC(=O)Nc3cccc(Cl)c3)SC2=N1	-18.1	–	–
CC(Sc1nc2cc([N+](=O)[O-])ccc2n1-c1cccc(C(F)(F)F)c1)C(=O)NC(N)=O (configuration not stated)	-16.9	6.51 µM [falling, single point]	–
CCCN(CC(=O)Nc1ccccc1OC)C(=O)c1ccc2ncsc2c1	-2.98	0.651 µM [rising, full curve, poor fit]	–
Cc1ccc(S(=O)(=O)N2CCN(C(=O)c3ccccc3OCc3c(C)noc3C)CC2)cc1C	77.9	–	8.2 µM [rising, partial curve]
O=C(COC(=O)COc1ccccc1[N+](=O)[O-])NC1CCCCC1	23.8	9.2 µM [falling, partial curve]	–
Cc1ccccc1C(=O)Nc1ccc(S(=O)(=O)Nc2onc(C)c2C)cc1	34.2	–	–
COc1ccc(S(=O)(=O)N2CCCCCC2)cc1C(=O)OCc1cccc(OC)c1OC	-38.8	23.1 µM [falling, single point]	16.4 µM [falling, single point]
O=C(Nc1ccc(Cl)cc1)Nc1nc(-c2sccc2Br)cs1	-17.4	2.91 µM [rising, single point]	0.00461 µM [falling, full curve, poor fit]
CSc1snc(SCC(N)=O)c1C#N	-0.639	0.13 µM [falling, full curve, poor fit]	0.13 µM [falling, full curve, poor fit]
COc1ccc(NC(=S)NNc2ccc([N+](=O)[O-])cc2S(=O)(=O)Nc2ccc(C)cc2C)cc1	-35	0.0206 µM [falling, full curve, poor fit]	29.1 µM [falling, single point]
CC(C)C(=O)Nc1ccc(S(=O)(=O)Nc2ccccn2)cc1	43.5	18.4 µM [rising, partial curve]	–
COc1ccc(N2CCN(C(CNC(=O)c3ccc4c(c3)OCO4)c3ccco3)CC2)cc1 (configuration not stated)	24.8	13 µM [rising, partial curve]	–
CC(OC(=O)c1cccs1)C(=O)NCc1ccco1 (configuration not stated)	-11.1	0.13 µM [falling, full curve, poor fit]	–
CC(C)(C)c1ccc(-c2n[nH]c(=S)n2C2CCCC2)cc1	-25.2	–	–

SMILES	cell number change [%]	AC50 [1]	AC50 [2]
O=C(CSc1nnc(NC(=O)c2ccco2)s1)Nc1ccc2c(c1)OCCO2	8.5	–	–
CC(C)Oc1ccc(C(=O)Nc2ccc3c(c2)n(C)c(=O)n3C)cc1	–	29.1 µM [falling, single point]	–
Cc1ccc(Cn2c(SCC(=O)N/N=C/c3ccc(C)o3)nc3ccccc32)cc1	17.5	–	–
N=C1C(c2nc3ccccc3s2)=C(O)CN1CCCO	15.2	–	–
CC(=O)c1ccc(N(CC(=O)NC2CCCC2)C(=O)c2csnn2)cc1	-6.67	–	–
CCOc1ccc(/C=C2/SC(=S)N(n3c(C)ccc3C)C2=O)cc1	-60.1	18.4 µM [falling, single point]	29.1 µM [falling, single point]
Cc1cccc2sc(NC(=O)CCNS(=O)(=O)c3cccs3)nc12	21.9	0.00517 µM [falling, full curve, poor fit]	–
O=C(CCNC(=O)OCc1ccccc1)NC1CCCCCC1	-7.09	3.66 µM [falling, partial curve]	–
N#CC1=C(N)C(C#N)(C#N)C(c2cccnc2)C2CN(C(=O)OCc3ccccc3)CC=C12 (configuration not stated)	-61.1	18.4 µM [falling, partial curve]	8.2 µM [falling, partial curve]
CCN(CC)CCCNC(=O)c1ccc(N2CCCCC2)c(NS(=O)(=O)c2ccc(C)cc2)c1	-10.7	0.651 µM [falling, single point]	–
CCC(=O)Nc1cc(C)c(NC(=O)CCc2ccccc2)cn1	-11	29.1 µM [falling, single point]	–
CC(=O)Nc1ccc(S(=O)(=O)N2CCN(Cc3cccc([N+](=O)[O-])c3)CC2)cc1	-32	2.31 µM [falling, partial curve, poor fit]	–
CC(C)S(=O)(=O)N1CCCC(C(=O)c2cccc(Cl)c2)C1 (configuration not stated)	7.54	0.116 µM [rising, full curve, poor fit]	–
CCN1C(=O)S/C(=C\c2ccc(N3CCOCC3)cc2C)C1=O	-29.3	7.31 µM [falling, partial curve]	–
Cc1nnsc1S(=O)(=O)Cc1ccccc1Cl	-16	–	–
NC(=O)c1ccsc1NC(=O)c1ccco1	-12.1	0.82 µM [rising, single point]	–
COc1ccc(S(=O)(=O)CCC(=O)O)cc1	-14.4	23.1 µM [falling, partial curve]	–
Cc1cccc(C)c1NC(=O)COC(=O)C1Cc2ccccc2CN1C(=O)c1ccccc1 (configuration not stated)	8.71	–	–
N#Cc1c(NC(=O)CN2CCN(C(=O)c3ccco3)CC2)sc2c1CCCCC2	53.1	29.1 µM [rising, partial curve, poor fit]	29.1 µM [rising, single point]
CC1(c2ccccc2)NC(=O)N(CC(=O)NNC(=O)c2cccc(Cl)c2)C1=O (configuration not stated)	-16.9	3.26 µM [rising, full curve]	–

SMILES	cell number change [%]	AC50 [1]	AC50 [2]
Cc1ccc(-c2csc(/C(C#N)=C/Nc3ccc4c(c3)OCCO4)n2)cc1	11.3	0.0291 µM [rising, single point]	–
O=C1Cc2cc([N+](=O)[O-])ccc2N1c1c(Cl)cccc1Cl	–	29.1 µM [falling, single point]	–
O=C(Cc1ccc(Cl)cc1)Nc1ccccc1C(=O)N1CCCC1	-21.3	–	–
Cc1cc(C)n(-c2nc(Nc3ccccc3C)nc(-n3nc(C)cc3C)n2)n1	-20.4	29.1 µM [falling, single point]	–
COc1ccc(OCCNC(=O)CSc2ccc(C(F)(F)F)cc2[N+](=O)[O-])cc1	9.47	8.2 µM [rising, partial curve]	–
CCN(CC(=O)NCc1cccs1)C(=O)/C=C/c1cc(Br)ccc1OC(F)F	-35.1	25.9 µM [falling, partial curve, poor fit]	23.1 µM [falling, single point]
O=C1CC(N2CCN(Cc3ccc4c(c3)OCO4)CC2)C(=O)N1c1cccc(Cl)c1 (configuration not stated)	34.4	6.51 µM [falling, single point]	8.2 µM [rising, partial curve]
CCCCC(=O)Nc1cc(C(=O)NCCc2ccccc2)ccc1Cl	-8.32	0.517 µM [falling, full curve, poor fit]	–
COC(=O)C1CCN(C(=O)NC2CC(=O)N(c3ccc4c(c3)OCCO4)C2)CC1 (configuration not stated)	-36.4	0.146 µM [falling, full curve, poor fit]	0.0517 µM [falling, full curve, poor fit]
COC(=O)Cc1c(C)c2ccc(OC3CCCCC3=O)cc2oc1=O (configuration not stated)	11.7	–	6.51 µM [rising, single point]
COc1ccc(CC(=S)N2CCOCC2)cc1	-77.6	4.11 µM [falling, partial curve]	2.59 µM [falling, full curve]
CCn1c(-c2cc(-c3cccc(OC)c3)nc3ccccc23)n[nH]c1=S	24.6	–	2.59 µM [rising, full curve, poor fit]
CCc1c(C)nc2c(-c3ccccc3OC)c(C)[nH]n2c1=O	-23.5	0.651 µM [falling, full curve, poor fit]	4.11 µM [falling, full curve, poor fit]
CSc1ccccc1C(=O)Nc1ccccc1C	65.9	–	–
CN(C)S(=O)(=O)c1ccc(Cl)c(NC(=O)c2ccncc2)c1	2.52	14.6 µM [rising, partial curve]	0.651 µM [rising, single point]
O=C(NC(=S)Nc1ccccc1Cl)C1CC1	10.6	9.2 µM [rising, partial curve, poor fit]	–
CC(C)CNC(=S)NC(=O)c1ccccc1Cl	10.4	–	0.00461 µM [rising, full curve, poor fit]
Cc1ccc(C)c2c1[nH]c1ccc([N+](=O)[O-])cc12	–	9.2 µM [rising, partial curve]	0.13 µM [rising, full curve, poor fit]

Single records (already shown). Values in the order: cell number change [%] | AC50 [1] | AC50 [2]
CC1(c2ccccc2)NC(=O)N(CC(=O)NNC(=O)c2cccc(Cl)c2)C1=O (configuration not stated) as listed: -16.9 | 3.26 µM [rising, full curve] | –
Cc1nnsc1S(=O)(=O)Cc1ccccc1Cl as listed: -16 | – | –
Cc1ccc(C)c2c1[nH]c1ccc([N+](=O)[O-])cc12 as listed: – | 9.2 µM [rising, partial curve] | 0.13 µM [rising, full curve, poor fit]
